Source: the supplement of paper PMC10849652
This is one part of the list.

Protein sequences, listed by entry. Tags and fused reporters are not part of them. Lines headed by an entry give the natural chain unless they say otherwise; changes in a name come on top.
UniProt Q13625: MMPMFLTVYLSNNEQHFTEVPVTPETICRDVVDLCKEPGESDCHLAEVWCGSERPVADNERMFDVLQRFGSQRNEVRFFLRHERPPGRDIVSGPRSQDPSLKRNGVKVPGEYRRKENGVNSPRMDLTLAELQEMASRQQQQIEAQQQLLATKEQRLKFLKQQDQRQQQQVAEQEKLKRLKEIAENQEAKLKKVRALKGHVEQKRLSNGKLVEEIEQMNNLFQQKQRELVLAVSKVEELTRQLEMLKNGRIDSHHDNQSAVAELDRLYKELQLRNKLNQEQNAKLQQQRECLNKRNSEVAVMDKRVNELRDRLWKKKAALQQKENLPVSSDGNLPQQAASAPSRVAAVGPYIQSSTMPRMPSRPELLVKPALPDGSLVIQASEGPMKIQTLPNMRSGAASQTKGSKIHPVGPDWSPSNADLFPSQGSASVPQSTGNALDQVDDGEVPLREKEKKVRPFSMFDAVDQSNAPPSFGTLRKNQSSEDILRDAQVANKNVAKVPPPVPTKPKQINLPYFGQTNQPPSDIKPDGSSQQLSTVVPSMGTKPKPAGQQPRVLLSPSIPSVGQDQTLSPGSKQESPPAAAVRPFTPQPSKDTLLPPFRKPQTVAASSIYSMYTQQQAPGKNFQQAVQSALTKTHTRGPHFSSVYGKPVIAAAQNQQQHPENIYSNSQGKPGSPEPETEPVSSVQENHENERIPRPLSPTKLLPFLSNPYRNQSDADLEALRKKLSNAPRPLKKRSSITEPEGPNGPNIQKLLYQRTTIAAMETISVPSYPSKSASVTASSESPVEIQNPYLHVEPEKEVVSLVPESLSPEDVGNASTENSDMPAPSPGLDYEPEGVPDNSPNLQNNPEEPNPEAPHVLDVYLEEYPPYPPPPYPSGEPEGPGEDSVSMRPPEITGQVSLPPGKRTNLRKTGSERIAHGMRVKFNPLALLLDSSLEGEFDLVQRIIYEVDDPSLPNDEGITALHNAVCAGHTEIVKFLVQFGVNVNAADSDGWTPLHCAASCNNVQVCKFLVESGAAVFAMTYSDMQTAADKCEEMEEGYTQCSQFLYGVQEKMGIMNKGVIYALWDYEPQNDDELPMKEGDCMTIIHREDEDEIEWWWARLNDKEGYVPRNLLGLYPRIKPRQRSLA
UniProt O95900: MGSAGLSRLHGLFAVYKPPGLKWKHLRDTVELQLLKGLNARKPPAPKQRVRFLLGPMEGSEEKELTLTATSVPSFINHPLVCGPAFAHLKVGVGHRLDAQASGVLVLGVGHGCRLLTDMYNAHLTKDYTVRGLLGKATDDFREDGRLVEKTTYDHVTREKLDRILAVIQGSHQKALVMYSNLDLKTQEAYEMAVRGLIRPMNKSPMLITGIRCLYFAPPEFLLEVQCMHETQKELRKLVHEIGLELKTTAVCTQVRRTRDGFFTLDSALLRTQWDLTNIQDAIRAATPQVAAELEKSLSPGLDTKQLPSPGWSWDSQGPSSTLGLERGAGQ
UniProt Q9UPQ9, whole entry, looked up: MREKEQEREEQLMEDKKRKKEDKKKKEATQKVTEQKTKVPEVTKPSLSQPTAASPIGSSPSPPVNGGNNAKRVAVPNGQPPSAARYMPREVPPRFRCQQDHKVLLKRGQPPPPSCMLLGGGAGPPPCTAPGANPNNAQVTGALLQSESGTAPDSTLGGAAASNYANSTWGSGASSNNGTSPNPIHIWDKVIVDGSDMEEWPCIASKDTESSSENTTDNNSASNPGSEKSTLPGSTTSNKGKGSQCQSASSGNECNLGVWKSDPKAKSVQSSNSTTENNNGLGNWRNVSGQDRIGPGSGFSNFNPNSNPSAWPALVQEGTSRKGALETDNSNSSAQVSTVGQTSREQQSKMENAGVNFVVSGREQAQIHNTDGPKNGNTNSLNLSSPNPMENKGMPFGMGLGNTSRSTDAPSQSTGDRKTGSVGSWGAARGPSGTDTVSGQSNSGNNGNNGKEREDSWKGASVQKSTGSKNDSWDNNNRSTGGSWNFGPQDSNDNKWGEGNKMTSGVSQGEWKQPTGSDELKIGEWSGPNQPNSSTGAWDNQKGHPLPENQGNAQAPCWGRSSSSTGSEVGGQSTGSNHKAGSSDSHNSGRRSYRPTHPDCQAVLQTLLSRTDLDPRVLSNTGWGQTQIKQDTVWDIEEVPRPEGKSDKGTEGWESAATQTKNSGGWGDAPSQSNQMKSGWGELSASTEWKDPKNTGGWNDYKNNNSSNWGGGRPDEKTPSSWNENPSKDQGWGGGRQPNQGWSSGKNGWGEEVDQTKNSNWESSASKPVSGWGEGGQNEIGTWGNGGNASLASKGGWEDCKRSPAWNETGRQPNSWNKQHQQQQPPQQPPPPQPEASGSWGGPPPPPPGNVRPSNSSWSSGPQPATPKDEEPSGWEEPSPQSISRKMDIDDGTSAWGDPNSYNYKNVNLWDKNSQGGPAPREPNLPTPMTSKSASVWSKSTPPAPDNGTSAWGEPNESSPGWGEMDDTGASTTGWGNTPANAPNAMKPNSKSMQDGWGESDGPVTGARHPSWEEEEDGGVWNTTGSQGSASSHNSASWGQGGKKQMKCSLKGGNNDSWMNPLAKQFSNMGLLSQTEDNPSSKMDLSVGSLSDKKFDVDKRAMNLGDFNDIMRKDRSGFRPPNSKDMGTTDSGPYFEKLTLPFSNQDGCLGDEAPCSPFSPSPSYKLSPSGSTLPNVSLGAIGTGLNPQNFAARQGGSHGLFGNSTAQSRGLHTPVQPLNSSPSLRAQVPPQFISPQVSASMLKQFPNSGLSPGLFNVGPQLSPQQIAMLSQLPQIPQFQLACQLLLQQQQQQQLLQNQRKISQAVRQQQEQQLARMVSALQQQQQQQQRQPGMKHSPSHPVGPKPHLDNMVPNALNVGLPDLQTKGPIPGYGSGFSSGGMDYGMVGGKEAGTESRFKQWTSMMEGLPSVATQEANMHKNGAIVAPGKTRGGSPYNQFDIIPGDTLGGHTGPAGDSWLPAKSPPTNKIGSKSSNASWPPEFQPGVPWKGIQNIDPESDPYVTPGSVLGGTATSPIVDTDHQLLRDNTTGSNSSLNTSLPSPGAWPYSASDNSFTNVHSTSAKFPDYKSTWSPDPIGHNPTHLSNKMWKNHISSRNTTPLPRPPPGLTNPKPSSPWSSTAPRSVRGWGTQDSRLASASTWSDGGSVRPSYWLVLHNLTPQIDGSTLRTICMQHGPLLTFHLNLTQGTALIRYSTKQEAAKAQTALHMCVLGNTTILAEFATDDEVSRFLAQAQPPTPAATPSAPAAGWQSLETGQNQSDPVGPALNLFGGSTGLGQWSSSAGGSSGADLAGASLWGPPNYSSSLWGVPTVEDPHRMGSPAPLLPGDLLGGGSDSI
UniProt Q9Y5R8, whole entry, looked up: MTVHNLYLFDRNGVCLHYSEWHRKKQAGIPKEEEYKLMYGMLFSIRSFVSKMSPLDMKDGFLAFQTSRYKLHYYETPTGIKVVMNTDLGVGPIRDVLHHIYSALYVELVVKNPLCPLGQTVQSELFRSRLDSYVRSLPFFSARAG
UniProt Q9P0U1: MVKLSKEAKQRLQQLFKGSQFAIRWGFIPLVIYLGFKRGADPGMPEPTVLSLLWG
UniProt Q12888: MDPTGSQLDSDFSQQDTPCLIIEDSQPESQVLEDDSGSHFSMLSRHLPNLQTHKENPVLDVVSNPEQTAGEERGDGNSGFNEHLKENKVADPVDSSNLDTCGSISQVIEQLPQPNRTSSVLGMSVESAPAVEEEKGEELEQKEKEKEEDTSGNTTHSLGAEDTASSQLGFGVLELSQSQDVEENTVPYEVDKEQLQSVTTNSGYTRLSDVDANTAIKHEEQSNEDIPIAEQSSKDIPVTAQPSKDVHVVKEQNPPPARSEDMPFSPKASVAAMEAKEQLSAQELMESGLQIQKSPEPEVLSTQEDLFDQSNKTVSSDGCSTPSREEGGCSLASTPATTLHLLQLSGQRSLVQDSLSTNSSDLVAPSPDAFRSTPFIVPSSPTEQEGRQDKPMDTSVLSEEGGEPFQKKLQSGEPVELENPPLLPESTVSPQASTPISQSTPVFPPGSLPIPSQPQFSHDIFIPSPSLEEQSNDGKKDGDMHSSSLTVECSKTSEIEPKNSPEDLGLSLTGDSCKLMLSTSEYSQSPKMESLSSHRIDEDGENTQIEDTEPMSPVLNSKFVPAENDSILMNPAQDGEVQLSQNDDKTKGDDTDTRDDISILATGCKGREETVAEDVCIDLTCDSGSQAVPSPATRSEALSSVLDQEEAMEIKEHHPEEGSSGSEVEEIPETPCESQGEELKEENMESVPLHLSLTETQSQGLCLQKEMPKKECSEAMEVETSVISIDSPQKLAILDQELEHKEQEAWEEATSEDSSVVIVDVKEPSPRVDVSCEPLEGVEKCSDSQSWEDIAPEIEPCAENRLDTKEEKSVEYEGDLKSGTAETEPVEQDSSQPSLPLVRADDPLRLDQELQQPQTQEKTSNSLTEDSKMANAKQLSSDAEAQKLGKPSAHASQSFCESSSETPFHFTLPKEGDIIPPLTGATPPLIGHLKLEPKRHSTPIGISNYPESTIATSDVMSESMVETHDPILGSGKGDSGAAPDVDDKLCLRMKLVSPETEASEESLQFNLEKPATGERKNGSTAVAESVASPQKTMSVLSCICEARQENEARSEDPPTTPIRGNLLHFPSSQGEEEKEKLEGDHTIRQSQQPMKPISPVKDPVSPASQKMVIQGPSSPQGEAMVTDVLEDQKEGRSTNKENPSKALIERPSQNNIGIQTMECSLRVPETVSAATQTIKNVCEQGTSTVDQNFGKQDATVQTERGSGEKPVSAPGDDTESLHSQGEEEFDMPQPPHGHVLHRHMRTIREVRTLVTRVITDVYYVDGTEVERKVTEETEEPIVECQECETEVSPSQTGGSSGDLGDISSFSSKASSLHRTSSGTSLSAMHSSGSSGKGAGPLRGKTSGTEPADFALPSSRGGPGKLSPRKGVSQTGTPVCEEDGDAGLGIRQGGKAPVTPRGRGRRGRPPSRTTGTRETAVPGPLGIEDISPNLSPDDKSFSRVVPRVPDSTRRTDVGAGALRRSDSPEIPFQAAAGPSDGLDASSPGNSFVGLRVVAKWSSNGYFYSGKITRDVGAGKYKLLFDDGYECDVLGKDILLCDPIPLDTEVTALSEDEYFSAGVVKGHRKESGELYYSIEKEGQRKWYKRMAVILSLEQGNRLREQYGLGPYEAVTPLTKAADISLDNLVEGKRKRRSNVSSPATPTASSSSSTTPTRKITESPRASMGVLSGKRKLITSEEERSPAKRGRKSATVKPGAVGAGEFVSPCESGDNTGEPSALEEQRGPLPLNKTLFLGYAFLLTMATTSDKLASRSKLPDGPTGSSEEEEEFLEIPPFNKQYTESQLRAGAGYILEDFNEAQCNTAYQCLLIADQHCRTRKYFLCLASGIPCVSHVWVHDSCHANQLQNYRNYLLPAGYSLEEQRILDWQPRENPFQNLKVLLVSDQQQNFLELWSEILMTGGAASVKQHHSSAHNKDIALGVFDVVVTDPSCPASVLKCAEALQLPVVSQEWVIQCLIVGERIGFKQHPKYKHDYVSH
UniProt P28908: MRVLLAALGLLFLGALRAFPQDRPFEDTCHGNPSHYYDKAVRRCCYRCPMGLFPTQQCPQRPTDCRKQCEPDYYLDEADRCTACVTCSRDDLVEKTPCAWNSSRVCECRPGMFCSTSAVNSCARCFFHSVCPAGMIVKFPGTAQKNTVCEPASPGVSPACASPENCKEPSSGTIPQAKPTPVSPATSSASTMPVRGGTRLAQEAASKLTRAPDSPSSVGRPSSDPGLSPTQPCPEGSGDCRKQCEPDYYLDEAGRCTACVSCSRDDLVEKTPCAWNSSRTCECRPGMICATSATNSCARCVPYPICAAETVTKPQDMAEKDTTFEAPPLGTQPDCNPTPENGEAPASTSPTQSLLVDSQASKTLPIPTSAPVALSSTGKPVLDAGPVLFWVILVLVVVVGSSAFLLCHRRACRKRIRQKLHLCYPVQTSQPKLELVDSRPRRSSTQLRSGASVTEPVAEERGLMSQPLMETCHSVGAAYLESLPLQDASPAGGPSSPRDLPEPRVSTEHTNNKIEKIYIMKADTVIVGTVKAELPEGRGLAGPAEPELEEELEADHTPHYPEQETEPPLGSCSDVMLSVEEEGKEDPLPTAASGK
UniProt Q96FX7: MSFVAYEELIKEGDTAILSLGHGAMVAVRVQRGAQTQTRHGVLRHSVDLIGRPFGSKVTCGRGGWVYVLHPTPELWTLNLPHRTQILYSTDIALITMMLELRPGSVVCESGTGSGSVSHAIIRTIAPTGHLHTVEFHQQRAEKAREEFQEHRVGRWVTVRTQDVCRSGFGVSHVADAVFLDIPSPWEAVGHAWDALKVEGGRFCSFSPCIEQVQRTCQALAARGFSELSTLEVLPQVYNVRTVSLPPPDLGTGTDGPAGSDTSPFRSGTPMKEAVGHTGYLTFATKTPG
UniProt Q86SZ2: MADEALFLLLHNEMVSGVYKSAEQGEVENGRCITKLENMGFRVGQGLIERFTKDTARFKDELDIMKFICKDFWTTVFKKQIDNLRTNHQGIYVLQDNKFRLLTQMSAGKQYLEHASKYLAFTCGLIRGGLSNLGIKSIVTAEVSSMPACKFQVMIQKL

Compound: C[C@H](Nc1ncnc2nc[nH]c12)c1cc2cccc(Cl)c2c(=O)n1-c1ccccc1 [duvelisib]
Experiment: log2 fold change, soluble protein after heating vs DMSO (PISA); higher = thermal stabilisation; K562 cells, 10 uM, 30 min; active = over 0.2 and 3.5 SD of the protein, either way, in both replicates (recomputed)
In short: (§1)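 Thermal stability values are relative to control samples and come from duplicates. They are expressed as log2 fold changes. For measurement, K562 cells (2×10^6 cells/mL) received 10 μM compound for 30 min, and aliquots were heated for 3 min over 48°C-58°C, pooled, and extracted at 4°C in PBS with 0.5% NP-40. Soluble protein, the supernatant after 21,000xg for 90 min, was quantified by TMTpro 16plex LC-MS/MS with equalised channel sums.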

log2 fold change, inactive:
TP53BP2 isoform 3 (UniProt Q13625) -0.078, TRIP11 (UniProt Q15643) -0.102, TPP2 (UniProt Q5VZU9) -0.078, TPK1 (UniProt Q9H3S4) 0.039, TRUB2 (UniProt O95900) 0.145, TNRC6B (UniProt Q9UPQ9) -0.063, TREML2 (UniProt Q5T2D2) 0.04, TRPM7 (UniProt Q96QT4) -0.046, TRIM24 (UniProt O15164) 0.069, TRAPPC1 (UniProt Q9Y5R8) 0.007, TSEN34 (UniProt Q9BSV6) 0.012, TRPC4AP (UniProt Q8TEL6) 0.094, TOMM7 (UniProt Q9P0U1) 0.139

Compound: Cc1cc(Nc2cc(CN3CCOCC3)c3nc(C)c(Cc4ccc(Cl)cc4F)n3n2)n[nH]1 [gandotinib]
Experiment: as above
In short: as §1

log2 fold change, inactive:
TP53BP2 isoform 3 (UniProt Q13625) -0.035, TRIP11 (UniProt Q15643) 0.308, TOM1 (UniProt O60784) -0.018, TPK1 (UniProt Q9H3S4) -0.221, TRUB2 (UniProt O95900) 0.018, TRIM4 (UniProt Q9C037) -0.023, TNRC6B (UniProt Q9UPQ9) 0.078, TRIM23 (UniProt P36406) 0.128, TRPM7 (UniProt Q96QT4) 0.097, TRIM24 (UniProt O15164) -0.102, TRAPPC1 (UniProt Q9Y5R8) -0.028, TRAPPC11 (UniProt Q7Z392) -0.047, TRPC4AP (UniProt Q8TEL6) -0.02, TP53BP1 isoform 2 (UniProt Q12888) -0.053, TNFRSF8 (UniProt P28908) 0.012, TRMT10C (UniProt Q7L0Y3) -0.072, TRABD (UniProt Q9H4I3) 0.059, TRIP10 isoform 2 (UniProt Q15642) 0.147, TSEN2 (UniProt Q8NCE0) -0.127, TRMT61A (UniProt Q96FX7) 0.168, TRIM44 (UniProt Q96DX7) 0.045, TOMM7 (UniProt Q9P0U1) -0.056, TSC2 (UniProt P49815) -0.091, TRAPPC6B (UniProt Q86SZ2) -0.045
